Reference: the supplement of paper PMC10849652
The list shows a part of the results.

Sequences of proteins named here, by UniProt entry; tags and fusion partners are left off. A change or cut given only in a name is not applied to a line headed by its entry.
UniProt Q6Y1H2: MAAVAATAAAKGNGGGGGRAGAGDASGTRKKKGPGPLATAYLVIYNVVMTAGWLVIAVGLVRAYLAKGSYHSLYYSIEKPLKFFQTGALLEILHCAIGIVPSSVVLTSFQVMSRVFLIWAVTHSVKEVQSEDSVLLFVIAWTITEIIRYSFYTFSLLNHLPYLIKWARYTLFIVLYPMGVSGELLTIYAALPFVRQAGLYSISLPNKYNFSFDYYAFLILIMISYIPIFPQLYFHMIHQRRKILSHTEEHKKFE
UniProt P34947, whole entry, looked up: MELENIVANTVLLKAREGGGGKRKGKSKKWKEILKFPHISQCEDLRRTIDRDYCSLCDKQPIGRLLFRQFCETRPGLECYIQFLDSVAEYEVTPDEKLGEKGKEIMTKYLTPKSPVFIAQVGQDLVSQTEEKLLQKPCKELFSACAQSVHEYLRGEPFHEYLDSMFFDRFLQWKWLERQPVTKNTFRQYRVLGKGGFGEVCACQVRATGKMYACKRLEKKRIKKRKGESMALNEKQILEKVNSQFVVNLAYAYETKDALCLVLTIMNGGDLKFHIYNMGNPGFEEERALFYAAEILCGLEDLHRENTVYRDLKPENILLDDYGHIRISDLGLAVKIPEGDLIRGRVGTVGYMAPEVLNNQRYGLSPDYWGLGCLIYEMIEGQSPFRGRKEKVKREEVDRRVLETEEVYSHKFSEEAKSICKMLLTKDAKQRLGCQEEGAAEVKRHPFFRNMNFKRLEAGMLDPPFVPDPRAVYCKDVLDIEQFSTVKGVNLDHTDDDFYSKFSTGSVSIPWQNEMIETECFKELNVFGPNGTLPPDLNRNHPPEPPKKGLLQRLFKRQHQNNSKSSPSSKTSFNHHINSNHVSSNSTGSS
UniProt P07305, whole entry, looked up: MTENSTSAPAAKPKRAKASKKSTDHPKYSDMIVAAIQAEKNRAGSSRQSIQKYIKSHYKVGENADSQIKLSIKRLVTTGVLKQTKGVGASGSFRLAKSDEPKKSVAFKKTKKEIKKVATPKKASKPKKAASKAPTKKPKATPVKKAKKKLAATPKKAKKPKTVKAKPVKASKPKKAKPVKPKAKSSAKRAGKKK
UniProt P15170, whole entry, looked up: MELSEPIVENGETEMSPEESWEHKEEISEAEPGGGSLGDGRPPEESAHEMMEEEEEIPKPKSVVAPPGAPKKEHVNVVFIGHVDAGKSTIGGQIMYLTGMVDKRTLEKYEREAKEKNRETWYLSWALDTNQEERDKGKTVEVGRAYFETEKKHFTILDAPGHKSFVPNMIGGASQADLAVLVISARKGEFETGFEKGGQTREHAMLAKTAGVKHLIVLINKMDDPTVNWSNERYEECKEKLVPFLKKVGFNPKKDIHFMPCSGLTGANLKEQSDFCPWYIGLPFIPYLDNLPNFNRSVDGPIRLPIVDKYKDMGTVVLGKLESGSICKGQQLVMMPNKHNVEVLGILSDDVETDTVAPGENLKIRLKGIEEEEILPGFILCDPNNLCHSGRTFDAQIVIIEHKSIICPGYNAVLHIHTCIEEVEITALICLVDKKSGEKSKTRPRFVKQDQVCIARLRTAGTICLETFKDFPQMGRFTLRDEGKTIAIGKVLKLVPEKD
UniProt P57764: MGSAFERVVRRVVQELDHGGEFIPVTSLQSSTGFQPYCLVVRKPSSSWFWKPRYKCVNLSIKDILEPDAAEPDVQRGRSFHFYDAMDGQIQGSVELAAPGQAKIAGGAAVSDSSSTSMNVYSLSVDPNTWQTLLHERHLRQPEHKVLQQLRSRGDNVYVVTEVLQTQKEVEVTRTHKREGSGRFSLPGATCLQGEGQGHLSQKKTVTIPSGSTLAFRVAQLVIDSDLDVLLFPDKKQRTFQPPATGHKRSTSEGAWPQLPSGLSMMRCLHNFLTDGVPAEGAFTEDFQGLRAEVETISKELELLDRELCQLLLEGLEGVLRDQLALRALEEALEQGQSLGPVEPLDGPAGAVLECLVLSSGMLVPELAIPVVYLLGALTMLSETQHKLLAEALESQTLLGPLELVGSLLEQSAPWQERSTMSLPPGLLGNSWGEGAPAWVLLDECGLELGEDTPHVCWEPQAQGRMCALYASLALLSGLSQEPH
UniProt Q8TD30: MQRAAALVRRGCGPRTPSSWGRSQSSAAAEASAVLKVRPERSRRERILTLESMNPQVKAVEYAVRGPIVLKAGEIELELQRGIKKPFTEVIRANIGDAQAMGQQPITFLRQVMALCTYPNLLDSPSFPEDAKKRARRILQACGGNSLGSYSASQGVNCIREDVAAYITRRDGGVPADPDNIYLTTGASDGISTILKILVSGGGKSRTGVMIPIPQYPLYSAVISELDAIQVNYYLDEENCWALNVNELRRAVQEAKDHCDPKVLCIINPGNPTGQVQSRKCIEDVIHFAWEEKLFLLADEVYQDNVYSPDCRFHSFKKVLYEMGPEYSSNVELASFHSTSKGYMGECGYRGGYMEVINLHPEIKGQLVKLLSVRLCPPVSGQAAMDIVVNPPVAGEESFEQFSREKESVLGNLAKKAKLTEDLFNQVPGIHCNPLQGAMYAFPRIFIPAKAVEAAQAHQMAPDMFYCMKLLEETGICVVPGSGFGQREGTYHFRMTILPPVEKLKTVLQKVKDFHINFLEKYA
UniProt Q9UBP9: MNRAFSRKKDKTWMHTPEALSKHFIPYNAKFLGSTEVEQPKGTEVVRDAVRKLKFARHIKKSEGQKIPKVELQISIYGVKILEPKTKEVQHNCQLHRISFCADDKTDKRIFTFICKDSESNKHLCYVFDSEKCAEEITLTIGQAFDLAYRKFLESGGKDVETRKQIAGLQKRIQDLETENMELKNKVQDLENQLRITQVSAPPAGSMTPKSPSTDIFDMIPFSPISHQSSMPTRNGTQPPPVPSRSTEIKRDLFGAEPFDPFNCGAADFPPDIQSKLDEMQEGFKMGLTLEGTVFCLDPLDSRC
UniProt Q4ZG55: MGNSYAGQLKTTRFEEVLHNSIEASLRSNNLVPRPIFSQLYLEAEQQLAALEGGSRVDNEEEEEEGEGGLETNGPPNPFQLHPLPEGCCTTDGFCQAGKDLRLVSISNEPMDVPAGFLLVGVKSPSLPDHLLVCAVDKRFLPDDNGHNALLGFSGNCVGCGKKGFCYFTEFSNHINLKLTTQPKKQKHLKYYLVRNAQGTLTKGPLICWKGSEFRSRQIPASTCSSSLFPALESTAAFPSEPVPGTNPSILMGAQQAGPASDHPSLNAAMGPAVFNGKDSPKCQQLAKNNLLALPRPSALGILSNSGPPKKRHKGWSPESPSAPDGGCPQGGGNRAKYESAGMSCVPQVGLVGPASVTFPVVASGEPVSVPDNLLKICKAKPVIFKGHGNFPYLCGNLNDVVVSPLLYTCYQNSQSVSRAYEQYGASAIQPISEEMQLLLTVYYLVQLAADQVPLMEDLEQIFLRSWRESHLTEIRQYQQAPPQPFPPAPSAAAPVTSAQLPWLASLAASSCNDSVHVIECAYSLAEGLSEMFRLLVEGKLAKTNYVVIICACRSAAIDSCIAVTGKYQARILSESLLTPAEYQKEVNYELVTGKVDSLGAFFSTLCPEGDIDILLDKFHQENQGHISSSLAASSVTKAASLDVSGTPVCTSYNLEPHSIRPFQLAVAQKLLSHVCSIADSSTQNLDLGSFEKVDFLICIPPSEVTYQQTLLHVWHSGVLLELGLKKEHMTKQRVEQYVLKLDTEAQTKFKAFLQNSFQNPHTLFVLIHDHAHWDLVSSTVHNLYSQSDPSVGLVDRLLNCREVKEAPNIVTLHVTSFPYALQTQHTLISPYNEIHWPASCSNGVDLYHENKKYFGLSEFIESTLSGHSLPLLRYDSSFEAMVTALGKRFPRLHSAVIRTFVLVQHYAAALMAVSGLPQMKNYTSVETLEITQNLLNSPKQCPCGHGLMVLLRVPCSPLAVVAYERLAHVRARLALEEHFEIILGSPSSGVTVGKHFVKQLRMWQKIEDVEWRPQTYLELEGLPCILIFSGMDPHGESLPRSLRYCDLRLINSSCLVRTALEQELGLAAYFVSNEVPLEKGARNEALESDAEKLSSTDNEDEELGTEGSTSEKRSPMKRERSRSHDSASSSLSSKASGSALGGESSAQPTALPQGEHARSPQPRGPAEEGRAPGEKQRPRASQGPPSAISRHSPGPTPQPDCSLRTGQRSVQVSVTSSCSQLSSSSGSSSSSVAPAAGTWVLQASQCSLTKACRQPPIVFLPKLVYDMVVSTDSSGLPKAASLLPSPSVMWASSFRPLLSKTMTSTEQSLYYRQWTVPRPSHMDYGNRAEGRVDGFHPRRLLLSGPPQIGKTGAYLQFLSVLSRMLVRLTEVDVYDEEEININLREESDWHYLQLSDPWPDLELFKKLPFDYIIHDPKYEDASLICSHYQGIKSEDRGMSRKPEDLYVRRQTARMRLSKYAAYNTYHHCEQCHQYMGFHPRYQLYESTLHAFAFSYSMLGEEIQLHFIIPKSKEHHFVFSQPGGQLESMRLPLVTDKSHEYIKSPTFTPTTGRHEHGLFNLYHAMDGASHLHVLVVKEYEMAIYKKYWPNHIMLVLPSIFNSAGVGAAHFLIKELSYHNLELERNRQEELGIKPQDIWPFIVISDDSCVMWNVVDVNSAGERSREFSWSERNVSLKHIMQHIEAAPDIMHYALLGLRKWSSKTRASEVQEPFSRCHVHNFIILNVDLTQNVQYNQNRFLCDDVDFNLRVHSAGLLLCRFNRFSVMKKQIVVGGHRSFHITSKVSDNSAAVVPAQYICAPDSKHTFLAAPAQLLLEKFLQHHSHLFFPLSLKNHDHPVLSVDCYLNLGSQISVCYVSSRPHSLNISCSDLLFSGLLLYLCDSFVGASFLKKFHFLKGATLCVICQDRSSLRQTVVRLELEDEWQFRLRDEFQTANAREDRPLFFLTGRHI

Legend:
Assay in all cases: log2 fold change, soluble protein after heating vs DMSO (PISA); higher = thermal stabilisation; K562 lysate, 10 uM; active = over 0.2 and 3.5 SD of the protein, either way, in both replicates (recomputed)
erlotinib = compound: C#Cc1cccc(Nc2ncnc3cc(OCCOC)c(OCCOC)cc23)c1 [erlotinib]
Procedure, shortened: (§1)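 Values give the log-two fold change in thermal stability against solvent controls, from duplicates. Crude K562 extract at 1 mg/mL protein, made by dounce homogenisation in PBS pH 7.4 with 1 mM MgCl2, was treated with 10 μM compound for 30 min. After 3 min heating across 48°C-58°C, aliquots were pooled, adjusted to 0.5% NP-40 at 4°C and centrifuged at 21,000xg for 90 min. The supernatant was measured by TMTpro 16plex LC-MS/MS with channel sums equalised.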

[1] = compound: C1=CC(=CC=C1C2=NC3=C(N2)C=C(C=C3)C(=O)N)OC4=CC=C(C=C4)Cl
Procedure, shortened: as §1

[2] = compound: C1=CC2=NC=CN=C2C=C1/C=C/3\C(=O)NC(=O)S3
Procedure, shortened: as §1

[3] = compound: C1=CC=C(C=C1)C2=NC(=C(N2)C3=CC=NC=C3)C4=CC(=C(C=C4)Cl)O
Procedure, shortened: as §1

IRAK-1-4 Inhibitor I = compound: C1COCCN1CCN2C3=CC=CC=C3N=C2NC(=O)C4=CC(=CC=C4)[N+](=O)[O-] [IRAK-1-4 Inhibitor I]
Procedure, shortened: as §1

ibrutinib = compound: C=CC(=O)N1CCC[C@@H](n2nc(-c3ccc(Oc4ccccc4)cc3)c3c(N)ncnc32)C1 [ibrutinib]
Procedure, shortened: as §1

[4] = compound: CC(=O)c1cnc2ccc(-c3cc(Cl)c(O)c(Cl)c3)nc2c1N[C@H]1CC[C@H](CN(C)C)CC1
Procedure, shortened: as §1

ralimetinib = compound: CC(C)(C)Cn1c(N)nc2ccc(-c3[nH]c(C(C)(C)C)nc3-c3ccc(F)cc3)nc21 [ralimetinib]
Procedure, shortened: as §1

[5] = compound: CC(C)(O)CC(=O)NCCn1ccc2ncnc(Nc3ccc(Oc4cccc(C(F)(F)F)c4)c(Cl)c3)c21
Procedure, shortened: as §1

[6] = compound: CC(C)C1=C2N=C(C=C(N2N=C1)NCC3=CC=CC=C3)NCCCCCCN
Procedure, shortened: as §1

[7] = compound: CC1=C(C=C(C=C1)NC(=O)C2=CC(=CC=C2)N(C)C)NC(=O)C3=CC=C(C=C3)O
Procedure, shortened: as §1

[8] = compound: CC1=CC=C(C=C1)SC2=C3C=C(SC3=CN=C2)C(=O)N
Procedure, shortened: as §1

[9] = compound: C1CCN(C1)C(=O)NC2=CC=CC(=C2)NC3=NC=C(C(=N3)NCCC4=CN=CN4)Br
Procedure, shortened: as §1

[10] = compound: C1CN(CCC1(CC2=CC=C(C=C2)Cl)N)C3=NC=NC4=C3C=CN4
Procedure, shortened: as §1

[11] = compound: CC1=C(C2=C(C=C1)C(=O)C3=CC=CC=C3N2CCCN)C
Procedure, shortened: as §1

[12] = compound: CC1=C(C=C(C=C1)NC(=O)C2=CC(=CC=C2)C(C)(C)C#N)NC3=CC4=C(C=C3)N=CN(C4=O)C
Procedure, shortened: as §1

[13] = compound: C/C(=N\NC(=O)C1=CC(=CC=C1)S(=O)(=O)N2CCOCC2)/C3=C(C=CC(=C3)Cl)O
Procedure, shortened: as §1

[14] = compound: C1=CC2=C(C=CC(=C2)/C=C\3/C(=O)NC(=NCC4=CC=CS4)S3)N=C1
Procedure, shortened: as §1

[15] = compound: C1=CC=C2C(=C1)C3=NNC4=CC=CC(=C43)C2=O
Procedure, shortened: as §1

[16] = compound: CC1=C(C(CC(=O)N1)C2=CC=C(C=C2)C(F)(F)F)C(=O)NC3=C(C=C4C(=C3)C=NN4)F
Procedure, shortened: as §1

Measured: log2 fold change

HACD2 (UniProt Q6Y1H2)
inactive: erlotinib 0.063 | [1] 0.078 | [2] -0.019 | [3] -0.026 | IRAK-1-4 Inhibitor I -0.113 | ibrutinib -0.148 | [4] 0.1 | ralimetinib 0.014 | [5] 0.136 | [6] -0.04 | [7] -0.074 | [8] 0.001

H3-2 (UniProt Q5TEC6)
inactive: [2] -0.078 | [3] 0.111 | [9] -0.092 | [10] -0.064 | IRAK-1-4 Inhibitor I -0.082 | ibrutinib -0.052 | ralimetinib 0.002 | [5] 0.006 | [11] 0.134 | [12] 0.088 | [7] 0.203

GRK5 (UniProt P34947)
inactive: erlotinib 0.083 | [13] 0.249 | [1] -0.096 | [14] 0.004 | [15] 0.246 | [6] 0.025 | [16] -0.019

H1-0 (UniProt P07305)
inactive: [11] 0.076 | [12] 0.116

GSPT1 isoform 2 (UniProt P15170)
inactive: [13] 0.344 | [14] 0 | [15] 0.187 | [4] 0.112 | [8] 0.005

GSTO1 (UniProt Q5TA02)
inactive: [4] -0.027 | [16] -0.018 | [8] -0.015

H3C1 (UniProt P68431)
inactive: [2] 0.828 | ibrutinib -0.11

GSDMD (UniProt P57764)
inactive: [13] 0.351 | [14] 0.063 | [3] 0.054 | [15] 0.249 | IRAK-1-4 Inhibitor I -0.221 | ralimetinib 0.091 | [5] 0.161 | [12] 0.262 | [7] -0.086

GPT2 (UniProt Q8TD30)
inactive: erlotinib -0.058 | [13] -0.058 | [1] 0.078 | [14] 0.033 | [3] 0.051 | [15] -0.102 | [9] -0.076 | [10] 0.064 | IRAK-1-4 Inhibitor I 0.038 | ralimetinib -0.131 | [5] -0.217 | [6] -0.035 | [11] -0.059 | [12] 0.04 | [7] 0.033

HBZ, A0A494C057
inactive: [13] -0.062 | [14] 0.011 | [2] -0.053 | [3] 0.116 | [15] -0.07 | IRAK-1-4 Inhibitor I -0.065 | ibrutinib 0.153 | [4] 0.016 | ralimetinib 0.052 | [5] 0.125 | [16] -0.219 | [7] -0.084 | [8] 0.035

GULP1 (UniProt Q9UBP9)
inactive: erlotinib 0.063 | [13] 0.149 | [1] -0.065 | [14] -0.034 | [2] 0.232 | [3] 0.036 | [15] -0.101 | [9] -0.03 | [10] -0.022 | IRAK-1-4 Inhibitor I 0.028 | ibrutinib -0.032 | ralimetinib -0.027 | [5] -0.087 | [6] 0.016 | [16] -0.054 | [11] 0.01 | [12] -0.081 | [7] 0.012

Fetched one by one from above, 2 records:
HACD2 (UniProt Q6Y1H2)
inactive: erlotinib 0.063 | [1] 0.078 | [2] -0.019 | [3] -0.026 | IRAK-1-4 Inhibitor I -0.113 | ibrutinib -0.148 | [4] 0.1 | ralimetinib 0.014 | [5] 0.136 | [6] -0.04 | [7] -0.074 | [8] 0.001

H1-0 (UniProt P07305)
inactive: [11] 0.076 | [12] 0.116

Next results:

GREB1 (UniProt Q4ZG55)
inactive: erlotinib 0.068 | [13] 0.022 | [1] 0.04 | [14] 0.088 | [2] -0.057 | [15] -0.314 | [9] -0.083 | [10] 0.291 | ibrutinib -0.109 | [6] 0.036 | [12] 0.404
